Experimental data from patent US20100286152A1, “N-PHENYL HYDRAZIDES AS MODULATORS OF THE GHRELIN RECEPTOR” (Glaxo Group Limited, priority 2007, published 2010).
Some of these results come from one statement about several compounds together.

Protein sequences, listed by entry. Tags and fused reporters are not part of them.
UniProt Q92847, whole entry: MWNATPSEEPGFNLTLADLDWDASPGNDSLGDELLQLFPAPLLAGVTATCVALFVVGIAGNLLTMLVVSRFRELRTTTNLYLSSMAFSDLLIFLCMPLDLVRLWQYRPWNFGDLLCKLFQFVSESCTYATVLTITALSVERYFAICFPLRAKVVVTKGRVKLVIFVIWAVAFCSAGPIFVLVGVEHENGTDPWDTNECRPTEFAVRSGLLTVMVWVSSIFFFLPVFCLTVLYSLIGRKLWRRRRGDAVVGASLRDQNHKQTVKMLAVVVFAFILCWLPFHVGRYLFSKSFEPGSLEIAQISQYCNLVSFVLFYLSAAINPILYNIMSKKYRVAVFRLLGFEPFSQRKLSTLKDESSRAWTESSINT

How the values were obtained:
[1] = target: T1, Human GHS-R (ghrelin receptor) (Homo sapiens, UniProt Q92847); test: GHSR Antagonist BACMAM FLIPR Assay; type: cell-based; conditions: U2OS cells transiently expressing human GHS-R; inhibition of EC80 concentration of hGhrelin; FLIPR fluorescence
T1 construct: The full-length gene was transferred into pCDN for expression analysis; expressed in transfected cells; host or cells: U2OS cells transduced with human GHSR BacMam virus

[2] = target: T1, Human GHS-R (ghrelin receptor); test: GHSR Agonist BACMAM FLIPR Assay (Method X or Y); type: cell-based; conditions: U2OS cells, maximum asymptote relative to that of the hGhrelin concentration response curve
Procedure: 24 h prior to assay U2OS cells at confluence 100% were harvested and spun down. The supernatant was removed and the cells resuspended in media (DMEM+10% FBS+1% L-Glutamine). A cell count was performed using the Cedex instrumentation, and the concentration of cells was adjusted using media to give 200K cells per mL (10K cells/50 μL).
Human GHSR BACMAM virus was added to the cell suspension at an appropriate % volume (calculated for individual batches of BACMAM virus as viral titres vary). The transduced cell suspension was dispensed into FLIPR 384-well clear bottom plates, 50 μL per well. Cell plates were incubated at 37° C. overnight.
Master compound plates were prepared in 100% DMSO. 3 mM was the top concentration (giving 10 μM final concentration) and they were serially diluted 1 in 4. 1 μL from the master plate was transferred to a daughter plate, to which was added 50 μL of compound dilution (Tyrodes {Elga water+145 mM NaCl+5 mM KCl+20 mM HEPES+10 mM glucose+1 mM MgCl2+1.5 mM CaCl2}. For the agonist assay, the compound buffer also contained 0.1% BSA. This plate was used for the assay. Ghrelin was always prepared in buffer containing 0.1% BSA.
Master compound plates were prepared in 100% DMSO. 3 mM was the top concentration (giving 10 μM final concentration) and they were serially diluted 1 in 4. 1 μL from the master plate was transferred to a daughter plate, to which was added 50 μL of compound dilution (HBSS {Elga water+137 mM NaCl+5 mM KCl+0.41 mMa KH2PO4(anhyd)+20 mM HEPES+5 mM glucose+0.81 mM MgSO4(anhyd)+1.3 mM CaCl2+4.16 mM NaHCO3}. For the agonist assay, the compound buffer also contained 0.1% BSA. This plate was used for the assay. Ghrelin was always prepared in buffer containing 0.1% BSA.
Media was aspirated from cell plates using a cell washer (leaving 10 μL of media). Cells were immediately loaded with loading buffer (Tyrodes buffer-(Elga water+145 mM NaCl+5 mM KCl+20 mM HEPES+10 mM glucose+1 mM MgCl2)+1.5 mM CaCl2+0.714 mg/mL Probenecid (predissolved in 1 M NaOH)+0.25 mM brilliant black+2 μM Fluo 4 dye, and incubated at 37.5° C., 5% CO2 for 90 min. The plates were placed in a FLuorimetric Imaging Plate Reader (FLIPR, Molecular Devices) where 10 μL of compound, prepared according to method A above, was added to the cells and fluorescence measurements were taken. Maximum changes in fluorescence were plotted as a percentage of the maximum response elicited by 300 nM hGhrelin and curves fitted using a 4-parameter logistic equation to generate pEC50 values. Intrinsic activity of the compounds was calculated by using the maximum asymptote of it's concentration response curve relative to the maximum asymptote of the hGhrelin concentration response curve.
Media was aspirated from cell plates using a cell washer (leaving 10 μL of media). Cells were immediately loaded with loading buffer (HBSS (Elga water+137 mM NaCl+5 mM KCl+0.41 mM KH2PO4(anhyd)+20 mM HEPES+5 mM glucose+0.81 mM MgSO4(anhyd))+1.3 mM CaCl2+4.16 mM NaHCO3+0.714 mg/mL Probenecid (predissolved in 1 M NaOH)+0.25 mM brilliant black+2 μM Fluo 4 dye, and incubated at 37.5° C., 5% CO2 for 90 min. The plates were placed in a FLuorimetric Imaging Plate Reader (FLIPR, Molecular Devices) where 10 μL of compound, prepared according to method B above, was added to the cells and fluorescence measurements were taken. Maximum changes in fluorescence were plotted as a percentage of the maximum response elicited by 300 nM hGhrelin and curves fitted using a 4-parameter logistic equation to generate pEC50 values. Intrinsic activity of the compounds was calculated by using the maximum asymptote of it's concentration response curve relative to the maximum asymptote of the hGhrelin concentration response curve.

Question: Which results are given for `CN1CCN(C(C(=O)NNc2cc(C(F)(F)F)cc(C(F)(F)F)c2)c2ccc3c(c2)CCO3)CC1` (single isomer, unassigned; enantiomer 2) [Compound 21, N′-[3,5-bis(trifluoromethyl)phenyl]-2-(2,3-dihydro-1-benzofuran-5-yl)-2-(4-methyl-1-piperazinyl)acetohydrazide-enantiomer 2]?
Answer: pIC50 [1]: greater than 5.5; intrinsic activity (IA) [2]: less than 0.4

Question: Which results are given for `Cc1ccc(C(C(=O)NNc2cc(C(F)(F)F)cc(C(F)(F)F)c2)N2CCN(C)CC2)c(C)n1` (single isomer, unassigned; enantiomer 2) [Compound 77, N′-[3,5-bis(trifluoromethyl)phenyl]-2-(2,6-dimethyl-3-pyridinyl)-2-(4-methyl-1-piperazinyl)acetohydrazide-enantiomer 2]?
Answer: pIC50 [1]: greater than 5.5; intrinsic activity (IA) [2]: less than 0.4

Question: Which pIC50 [1] does the source give for `CN1CCN(C(C(=O)NNc2cc(C(F)(F)F)cc(C(F)(F)F)c2)c2cncnc2)CC1` (single isomer, unassigned; enantiomer 2) [Compound 79, N′-[3,5-bis(trifluoromethyl)phenyl]-2-(4-methyl-1-piperazinyl)-2-(5-pyrimidinyl)acetohydrazide-enantiomer 2] here?
Answer: The pIC50 was “greater than 5.5”.

Question: What about the “intrinsic activity (IA)” value [2] of the same compound?
Answer: Its value is “less than 0.4”.
